From article PMC4601081, “A Single α Helix Drives Extensive Remodeling of the Proteasome Lid and Completion of Regulatory Particle Assembly” (Cell, 2015) come the findings set out here.

These are yes or no findings as the source states them, for the method shown. Some results given as binding are weak or reduced against the parent protein; the word gives no strength. For some assays here: Sequences can lack the tags named with a protein.

The target of assay [1] is the other LP2 subunits (Rpn3, Rpn5, Rpn7, Rpn8, Rpn9, Rpn11, Sem1), recombinant (S. cerevisiae) (UniProt P40016). In words: co-purification after coexpression; Rpn6 variants coexpressed with the other LP2 subunits in E. coli; affinity purification and gel filtration, SDS-PAGE.
Assay [2] concerns the target T1, Rpn11, subunit of LP2 and lid purified from yeast (S. cerevisiae), P43588.
T1 chain: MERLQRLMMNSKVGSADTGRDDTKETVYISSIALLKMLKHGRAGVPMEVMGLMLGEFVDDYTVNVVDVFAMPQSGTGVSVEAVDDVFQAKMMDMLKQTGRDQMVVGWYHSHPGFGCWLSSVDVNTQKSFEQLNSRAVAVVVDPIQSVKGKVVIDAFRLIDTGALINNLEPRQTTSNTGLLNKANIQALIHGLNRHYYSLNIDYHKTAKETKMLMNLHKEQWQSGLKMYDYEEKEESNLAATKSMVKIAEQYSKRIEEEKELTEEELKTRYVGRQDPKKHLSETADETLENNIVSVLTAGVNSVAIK
Put plainly: negative-stain EM; single-particle 3D reconstruction of LP2 purified from yeast at 16 Å; ~50 nM complex in Buffer A, 2% uranyl acetate; both purified. Conditions: remark: other sources report otherwise.

The target of assay [3] is T2, Rpn7, subunit of LP2 and lid purified from yeast (S. cerevisiae), Q06103.
T2 chain: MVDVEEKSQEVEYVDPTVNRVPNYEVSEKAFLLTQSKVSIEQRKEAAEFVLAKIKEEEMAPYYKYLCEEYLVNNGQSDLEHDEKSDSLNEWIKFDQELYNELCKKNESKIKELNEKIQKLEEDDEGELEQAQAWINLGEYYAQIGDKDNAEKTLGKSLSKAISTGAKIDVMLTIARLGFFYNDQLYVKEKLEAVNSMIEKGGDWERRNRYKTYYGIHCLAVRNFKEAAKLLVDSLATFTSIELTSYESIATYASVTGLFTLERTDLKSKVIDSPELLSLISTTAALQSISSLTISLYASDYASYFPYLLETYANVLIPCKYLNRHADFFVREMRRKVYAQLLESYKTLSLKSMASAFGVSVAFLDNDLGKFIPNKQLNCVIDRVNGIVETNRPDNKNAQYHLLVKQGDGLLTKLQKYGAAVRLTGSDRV
Described as above. The following applies: remark: other sources report otherwise.

Assay [4] deals with T1, Rpn11, subunit of LP2 and lid purified …. In words: cross-linking; QCLMS of LP2 purified from yeast as a whole complex: BS3-d0 / BS3-d4 at 1:200 protein to cross-linker, Buffer HA, 30°C 1 h; monomeric cross-linked complex cut from SDS-PAGE, trypsin, LC-MS/MS; both purified. The following applies: remark: other sources report otherwise.
Assay [5] addresses T3, Rpn9, subunit of LP2 and lid purified from yeast (S. cerevisiae), Q04062.
T3 chain: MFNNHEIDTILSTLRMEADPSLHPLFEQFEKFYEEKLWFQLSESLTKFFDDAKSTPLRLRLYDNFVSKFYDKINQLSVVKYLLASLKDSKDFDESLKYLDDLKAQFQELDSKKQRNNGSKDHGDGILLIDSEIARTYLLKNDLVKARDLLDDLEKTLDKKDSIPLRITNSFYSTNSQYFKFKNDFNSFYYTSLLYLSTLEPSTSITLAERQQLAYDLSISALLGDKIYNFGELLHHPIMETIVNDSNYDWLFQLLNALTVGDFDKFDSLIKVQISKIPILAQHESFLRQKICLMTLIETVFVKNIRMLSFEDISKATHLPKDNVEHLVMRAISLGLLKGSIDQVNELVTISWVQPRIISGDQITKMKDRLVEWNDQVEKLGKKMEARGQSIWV
Put plainly: cross-linking; QCLMS of lid purified from yeast as a whole complex: BS3-d0 / BS3-d4 at 1:200 protein to cross-linker, Buffer HA, 30°C 1 h; monomeric cross-linked complex cut from SDS-PAGE, trypsin, LC-MS/MS; both purified. Conditions: remark: other sources report otherwise.

The target of assay [6] is T4, Sem1, subunit of LP2 and lid purified from yeast (S. cerevisiae), O94742.
T4 chain: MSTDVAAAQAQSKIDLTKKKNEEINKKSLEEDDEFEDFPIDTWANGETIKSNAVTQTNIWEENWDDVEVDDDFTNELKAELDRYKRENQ
Described as above. The following applies: remark: other sources report otherwise.

The target of assay [7] is T5, Rpn3, subunit of LP2 and lid purified from yeast (S. cerevisiae), P40016.
T5 chain: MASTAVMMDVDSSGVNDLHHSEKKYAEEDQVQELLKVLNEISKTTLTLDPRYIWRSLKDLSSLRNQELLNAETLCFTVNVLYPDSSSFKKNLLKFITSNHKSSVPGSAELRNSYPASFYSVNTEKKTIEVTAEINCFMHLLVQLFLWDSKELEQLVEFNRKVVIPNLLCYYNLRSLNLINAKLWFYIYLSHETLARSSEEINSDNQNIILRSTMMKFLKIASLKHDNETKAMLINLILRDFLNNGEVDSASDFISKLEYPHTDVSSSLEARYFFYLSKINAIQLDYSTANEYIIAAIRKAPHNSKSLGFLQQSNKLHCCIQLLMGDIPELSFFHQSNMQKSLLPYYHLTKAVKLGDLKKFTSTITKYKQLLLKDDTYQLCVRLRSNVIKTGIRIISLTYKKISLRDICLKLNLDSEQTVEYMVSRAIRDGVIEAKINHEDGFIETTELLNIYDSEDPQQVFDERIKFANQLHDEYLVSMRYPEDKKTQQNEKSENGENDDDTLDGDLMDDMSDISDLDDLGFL
The description is as above. The following applies: remark: other sources report otherwise.

Assay [8] addresses T6, Rpn8, subunit of LP2 and lid purified from yeast (S. cerevisiae), Q08723.
T6 chain: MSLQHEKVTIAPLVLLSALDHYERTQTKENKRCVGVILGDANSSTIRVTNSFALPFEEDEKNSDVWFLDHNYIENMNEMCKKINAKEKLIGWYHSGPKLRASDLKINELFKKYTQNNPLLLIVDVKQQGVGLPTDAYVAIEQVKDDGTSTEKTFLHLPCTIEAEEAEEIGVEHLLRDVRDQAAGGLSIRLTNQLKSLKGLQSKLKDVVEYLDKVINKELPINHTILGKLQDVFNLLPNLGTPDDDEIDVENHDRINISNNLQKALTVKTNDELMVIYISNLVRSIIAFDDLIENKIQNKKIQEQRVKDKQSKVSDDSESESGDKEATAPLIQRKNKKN
In words: cross-linking; QCLMS of LP2 purified from yeast as a whole complex: BS3-d0 / BS3-d4 at 1:200 protein to cross-linker, Buffer HA, 30°C 1 h; monomeric cross-linked complex cut from SDS-PAGE, trypsin, LC-MS/MS; both purified. Conditions: remark: other sources report otherwise.

Assay [9] has as its target T6, Rpn8, subunit of LP2 and lid purified …. Put plainly: cross-linking; QCLMS of lid purified from yeast as a whole complex: BS3-d0 / BS3-d4 at 1:200 protein to cross-linker, Buffer HA, 30°C 1 h; monomeric cross-linked complex cut from SDS-PAGE, trypsin, LC-MS/MS; both purified. The following applies: remark: other sources report otherwise.

B1: GFP-Rpn6 fusion (protein, UniProt Q12377 1-434)
chain: MSLPGSKLEEARRLVNEKQYNEAEQVYLSLLDKDSSQSSAAAGASVDDKRRNEQETSILELGQLYVTMGAKDKLREFIPHSTEYMMQFAKSKTVKVLKTLIEKFEQVPDSLDDQIFVCEKSIEFAKREKRVFLKHSLSIKLATLHYQKKQYKDSLALINDLLREFKKLDDKPSLVDVHLLESKVYHKLRNLAKSKASLTAARTAANSIYCPTQTVAELDLMSGILHCEDKDYKTAFSYFFESFESYHNLTTHNSYEKACQVLKYMLLSKIMLNLIDDVKNILNAKYTKETYQSRGIDAMKAVAEAYNNRSLLDFNTALKQYEKELMGDELTRSHFNALYDTLLESNLCKIIEPFECVEISHISKIIGLDTQQVEGKLSQMILDKIFYGVLDQGNGWLYVYETPNQDATYDSALELVGQLNKVVDQLFEKASVLY
For the molecule B1, the binding entry in assay [1] was “binds”.

B2: Rpn6, subunit of LP2 and lid purified from yeast, Q12377 1-434 (protein)
chain: MSLPGSKLEEARRLVNEKQYNEAEQVYLSLLDKDSSQSSAAAGASVDDKRRNEQETSILELGQLYVTMGAKDKLREFIPHSTEYMMQFAKSKTVKVLKTLIEKFEQVPDSLDDQIFVCEKSIEFAKREKRVFLKHSLSIKLATLHYQKKQYKDSLALINDLLREFKKLDDKPSLVDVHLLESKVYHKLRNLAKSKASLTAARTAANSIYCPTQTVAELDLMSGILHCEDKDYKTAFSYFFESFESYHNLTTHNSYEKACQVLKYMLLSKIMLNLIDDVKNILNAKYTKETYQSRGIDAMKAVAEAYNNRSLLDFNTALKQYEKELMGDELTRSHFNALYDTLLESNLCKIIEPFECVEISHISKIIGLDTQQVEGKLSQMILDKIFYGVLDQGNGWLYVYETPNQDATYDSALELVGQLNKVVDQLFEKASVLY
Regarding B2, the binding result in assay [2], in [3] and in assay [4] was “binds” each time.

B3: Δ172-rpn6, N-terminally truncated Rpn6 (domain or fragment, UniProt Q12377 173-434)
chain: SLVDVHLLESKVYHKLRNLAKSKASLTAARTAANSIYCPTQTVAELDLMSGILHCEDKDYKTAFSYFFESFESYHNLTTHNSYEKACQVLKYMLLSKIMLNLIDDVKNILNAKYTKETYQSRGIDAMKAVAEAYNNRSLLDFNTALKQYEKELMGDELTRSHFNALYDTLLESNLCKIIEPFECVEISHISKIIGLDTQQVEGKLSQMILDKIFYGVLDQGNGWLYVYETPNQDATYDSALELVGQLNKVVDQLFEKASVLY
As for B3, in assay [1], the binding result is recorded as “binds”.

B4: Rpn11, subunit of LP2 and lid purified from yeast (natural protein, S. cerevisiae, UniProt P43588 1-306, looked up)
chain: MERLQRLMMNSKVGSADTGRDDTKETVYISSIALLKMLKHGRAGVPMEVMGLMLGEFVDDYTVNVVDVFAMPQSGTGVSVEAVDDVFQAKMMDMLKQTGRDQMVVGWYHSHPGFGCWLSSVDVNTQKSFEQLNSRAVAVVVDPIQSVKGKVVIDAFRLIDTGALINNLEPRQTTSNTGLLNKANIQALIHGLNRHYYSLNIDYHKTAKETKMLMNLHKEQWQSGLKMYDYEEKEESNLAATKSMVKIAEQYSKRIEEEKELTEEELKTRYVGRQDPKKHLSETADETLENNIVSVLTAGVNSVAIK
notes: Rpn11, S. cerevisiae proteasome lid subunit; source: purified from S. cerevisiae as part of LP2 or lid
For the molecule B4, the binding result in [5] and in assay [6] was “binds” each time.

B5: Rpn8, subunit of LP2 and lid purified from yeast (natural protein, S. cerevisiae, UniProt Q08723 1-338, looked up)
chain: MSLQHEKVTIAPLVLLSALDHYERTQTKENKRCVGVILGDANSSTIRVTNSFALPFEEDEKNSDVWFLDHNYIENMNEMCKKINAKEKLIGWYHSGPKLRASDLKINELFKKYTQNNPLLLIVDVKQQGVGLPTDAYVAIEQVKDDGTSTEKTFLHLPCTIEAEEAEEIGVEHLLRDVRDQAAGGLSIRLTNQLKSLKGLQSKLKDVVEYLDKVINKELPINHTILGKLQDVFNLLPNLGTPDDDEIDVENHDRINISNNLQKALTVKTNDELMVIYISNLVRSIIAFDDLIENKIQNKKIQEQRVKDKQSKVSDDSESESGDKEATAPLIQRKNKKN
notes: Rpn8, S. cerevisiae proteasome lid subunit; source: purified from S. cerevisiae as part of LP2 or lid
In the case of B5, the binding result in assay [7] is on record as “binds”.

B6: Δ211-rpn6, N-terminally truncated Rpn6 (domain or fragment, UniProt Q12377 212-434)
chain: TQTVAELDLMSGILHCEDKDYKTAFSYFFESFESYHNLTTHNSYEKACQVLKYMLLSKIMLNLIDDVKNILNAKYTKETYQSRGIDAMKAVAEAYNNRSLLDFNTALKQYEKELMGDELTRSHFNALYDTLLESNLCKIIEPFECVEISHISKIIGLDTQQVEGKLSQMILDKIFYGVLDQGNGWLYVYETPNQDATYDSALELVGQLNKVVDQLFEKASVLY
Regarding B6, the binding entry in assay [1] is reported as “binds”.

B7: Rpn7, subunit of LP2 and lid purified from yeast (natural protein, S. cerevisiae, UniProt Q06103 1-429, looked up)
chain: MVDVEEKSQEVEYVDPTVNRVPNYEVSEKAFLLTQSKVSIEQRKEAAEFVLAKIKEEEMAPYYKYLCEEYLVNNGQSDLEHDEKSDSLNEWIKFDQELYNELCKKNESKIKELNEKIQKLEEDDEGELEQAQAWINLGEYYAQIGDKDNAEKTLGKSLSKAISTGAKIDVMLTIARLGFFYNDQLYVKEKLEAVNSMIEKGGDWERRNRYKTYYGIHCLAVRNFKEAAKLLVDSLATFTSIELTSYESIATYASVTGLFTLERTDLKSKVIDSPELLSLISTTAALQSISSLTISLYASDYASYFPYLLETYANVLIPCKYLNRHADFFVREMRRKVYAQLLESYKTLSLKSMASAFGVSVAFLDNDLGKFIPNKQLNCVIDRVNGIVETNRPDNKNAQYHLLVKQGDGLLTKLQKYGAAVRLTGSDRV
notes: Rpn7, S. cerevisiae proteasome lid subunit; source: purified from S. cerevisiae as part of LP2 or lid
For B7, the binding result in assay [8] and in [9] was “binds” each time.
